The subject of one data set is HK-2 cells. Kind of data set: Cytotoxicity, MTT assay.
In the next data set the test system is HepG2 cells. Kind of data set: Cytotoxicity, MTT assay. Conditions: 48 h. In general terms: Formazan colour is commonly taken as a measure of viable cells.
The next data set relates to PANC-1 cells. Kind of data set: Cytotoxicity, MTT assay.
A further data set deals with SK-Hep-1 cells. Kind of data set: Cytotoxicity, MTT assay.
Another data set deals with blood cells. Put plainly: Hemolytic activity. To be noted: 100 µM, 37°C, 3 h, sheep blood cells.
Data set [1] is described as follows: In vivo pharmacokinetic study. To be noted: rats, subcutaneous injection, 25 mg/kg.
Data set [2] can be described thus: In vivo nephrotoxicity evaluation (biomarkers, histopathology). To be noted: mice.
The nature of data set [3]: Acute toxicity observed in the mouse infection experiments.
Data set [4] can be described thus: Isothermal titration calorimetry (ITC). To be noted: 25°C, 5.0 mM HEPES pH 7.4.
A short description of data set [5]: Stability under acidic conditions (statement). To be noted: prone to dehydration and loss of side-chain glycosyl groups.
The nature of data set [6]: Isothermal titration calorimetry (ITC), phospholipids as a group. To be noted: 25°C, 5.0 mM HEPES pH 7.4. In general terms: ITC needs no label: the signal is the heat of the interaction.
Another data set can be described thus: UV-vis binding curves. To be noted: UV-Vis 310-400 nm, room temperature, 30 min.

The IC50 is the concentration that gives 50% inhibition. Lower therefore signals greater potency in that assay. As usually defined, the half-life is the time in which the quantity being followed falls by half. A high value points to slow decline. The term Kd denotes the free concentration of one partner at which half of the binding sites on the other are occupied at equilibrium, for simple one-to-one binding. A low value points to higher affinity.

The structures given here were assigned with low confidence; some may be wrong.

For `COC1CC(OC2C(O)CC(OC3C(C)C=CCCC=CC=CC=CC=CC=CC(OC4OC(C)C(O)C(N)C4O)CC4OC(O)(CC(O)C(O)CCC(O)CC(=O)CC(O)CC(=O)OC(C)C3C)CC(O)C4C(=O)O)OC2C)OC(C)C1O` (stereo not drawn), the IC50 was 88.7 µM in the data set with HK-2 cells, 57.6 µM in the data set on HepG2 cells, 48.3 µM in the data set on PANC-1 cells and 76.7 µM with SK-Hep-1 cells. Further, the hemolytic activity result in the data set with blood cells is recorded as “no hemolytic activity”. Besides, in data set [1], the “area under the curve (AUC0-∞)” value was 541,692.11 h•ng/mL. In [1], the half-life was 3.84 h. For the same compound, the “maximum concentration (Cmax)” value in [1] was 55,168.20 ng/mL. Further, the “nephrotoxicity-related indicators (KIM-1, TIMP-1, NGAL, OPN)” value in [2] (s.c. 1, 5, 10 or 20 mg/kg once daily) is “comparable to those of the placebo group”. In [2] (s.c. once daily, H&E staining), the “histopathological scoring of kidney” value is recorded as “virtually no renal injury”. In addition, the acute toxicity entry in [3] (20 mg/kg, both mouse infection models) is reported as “no acute toxicity was observed”; in data set [3] (all in vivo animal experiments at different doses), “No acute toxicity was observed”. For the same compound, the dissociation constant Kd in [4] (cardiolipin) is 63.6 µM; in data set [4] (ergosterol), “does not bind”; in data set [4] (phosphatidylcholine), 36.8 µM; in data set [4] (phosphatidylglycerol), 28.2 µM; in [4] (phosphatidylinositol), 21.9 µM; in data set [4] (sphingomyelin (table: Sphingolipid)), 50 µM. Also, in data set [5], the “stability under acidic conditions” value was “unstable under acidic conditions”.
For `CC1C=CCCC=CC=CC=CC=CC=CC(OC2OC(C)C(O)C(N)C2O)CC2OC(O)(CC(O)C(O)CCC(O)CC(=O)CC(O)CC(=O)OC(C)C(C)C1O)CC(O)C2C(=O)O` (stereo not drawn), the Kd in data set [4] (cholesterol) was 28.6 µM; in data set [4] (ergosterol), 25.9 µM. The “binding to phospholipid components (ITC)” value in data set [6] is recorded as “no binding curves”. In the data set “UV-vis binding curves”, the “binding to phospholipid molecules (UV absorbance change)” value is recorded as “do not bind”. Moreover, in the data set “UV-vis binding curves” (cholesterol and ergosterol), the “binding to sterol molecules (UV absorbance change)” value was “binds to sterol molecules”.

Values taken from patent EP4831293A1, “BIOSYNTHETIC GENE CLUSTER FOR POLYENE MACROLIDE NATURAL PRODUCT MANDIMYCIN, AND NATURAL PRODUCT AND USE THEREOF” (dated 2026).
